According to PubChem BioAssay AID2685 (National Center for Advancing Translational Sciences (NCATS), 2010):
The other results are listed elsewhere or left out. The main result of the screen is listed elsewhere. These columns were measured beside it and carry no call. Compounds called inactive in the main read-out are mostly missing here. Potencies come from curve fits of mixed quality, noted in brackets.

Test: qHTS Assay for Lipid Storage Modulators in Drosophila S3 Cells;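 as to cell number change: cells counted by Cell Tracker Red CMTPX staining in the red channel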
Conditions: BODIPY lipid droplet fluorescence, 18-24 h; for cell number change: measured here: cell count max response, cells fed with added oleic acid
Procedure, shortened: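 Laser-scanning cytometry quantifies lipid droplet accumulation (500–530 nm total intensity; droplet/cell object ratio) in oleic acid-fed (400 uM added) Drosophila S3 cells treated with a concentration series. 20 uM Triacsin C defined 100% inhibition.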

[1] = measured here: cell number channel AC50, cells fed with added oleic acid
[2] = measured here: lipid fluorescence (Fed channel) AC50, cells fed with added oleic acid

Cc1cccc(NC(=S)NCCc2ccc3c(c2)OCCO3)c1C
AC50 [1]: 0.082 µM [falling, full curve, poor fit]
AC50 [2]: 0.651 µM [falling, full curve]

O=[N+]([O-])c1ccc(OCC(O)CN2CCN(c3ccccc3F)CC2)cc1 (centres undefined)
cell number change: 12.5%
AC50 [2]: 8.2 µM [rising, partial curve, poor fit]

CN(Cc1ccco1)Cc1ccc(O)c2ncccc12
cell number change: -16.2%
AC50 [2]: 0.13 µM [falling, full curve, poor fit]

O=C(CNC(=O)c1ccccc1)OCc1nnc(-c2ccc(Cl)cc2)o1
cell number change: -67.9%

CN(CC(=O)Nc1ccc(F)c(F)c1F)C(=O)c1ccc2c(c1)S(=O)(=O)N=C1CCCCCN12
cell number change: 31.3%
AC50 [1]: 16.4 µM [rising, single point]

COc1ccc(OC)c(CNC(=O)c2coc(=O)c3ccccc23)c1
cell number change: 27.6%

CCn1c(=O)c2cc(C(=O)Nc3ccc(OC)cc3OC)sc2c2ccccc21
cell number change: 34%
AC50 [1]: 0.184 µM [rising, full curve, poor fit]
AC50 [2]: 0.0731 µM [rising, full curve, poor fit]

COc1ccc(S(=O)(=O)NC(C)C(=O)NCCN2CCOCC2)cc1Cl (centres undefined)
cell number change: -14.3%
AC50 [2]: 29.1 µM [falling, single point]

COc1ccccc1N=C(C)C1=C(O)COC1=O
cell number change: 6.72%

Cc1ccc(CNC(=O)C2CNc3cc(C)ccc3O2)cc1 (centres undefined)
cell number change: -4.74%

O=C(Nc1ccc(N2CCCCC2)cc1)c1cc([N+](=O)[O-])cc([N+](=O)[O-])c1
cell number change: -3.66%

CC(C)C[C@@H](CSc1ccccc1)N1CCN(C)CCC1=O
cell number change: 5.5%
AC50 [2]: 23.1 µM [falling, single point]

COc1ccc(C(CNc2ccc(C(F)(F)F)cn2)N(C)C)cc1OC (centres undefined)
AC50 [1]: 6.51 µM [rising, single point]
AC50 [2]: 6.51 µM [rising, single point]

CC(C)(C)c1cc(-n2ccnc2)n2ncc(-c3ccc(Cl)cc3)c2n1
cell number change: 21%
AC50 [2]: 0.517 µM [rising, partial curve]

CCOC(=O)C(C(=O)OCC)C(C(=O)OCC)N1CCOCC1 (centres undefined)
cell number change: 5.27%
AC50 [2]: 29.1 µM [falling, single point]

O=C(NCc1ccccc1)c1nc[nH]c1C(=O)N1CCc2ccccc2C1
cell number change: 11.9%
AC50 [1]: 6.51 µM [falling, single point]
AC50 [2]: 4.11 µM [rising, single point]

CCn1nc(C)c(/C=N/NC(=O)Cc2ccc(Cl)cc2)c1C
AC50 [2]: 2.31 µM [rising, single point]

CCc1nnc(SCc2ccc(OC)c(Br)c2)n1N
cell number change: -44.5%
AC50 [1]: 29.1 µM [falling, single point]
AC50 [2]: 23.1 µM [falling, partial curve, poor fit]

CC(OC(=O)Cc1c(F)cccc1Cl)C(=O)NC1(C#N)CCCCC1 (centres undefined)
cell number change: 2.55%
AC50 [2]: 23.1 µM [falling, single point]

COc1ccc2c(c1)N(C)C(=O)CC(c1ccccc1)=N2
cell number change: 10.1%
AC50 [2]: 0.651 µM [rising, partial curve]

CCOc1ccc(C(C)=O)cc1COC(=O)CN1C(=O)NC2(CCCC2)C1=O
cell number change: -17.5%
AC50 [2]: 20.6 µM [falling, single point]

Cn1c(SCC(=O)Nc2ccc(Cl)cc2)nnc1C1CC1
cell number change: -4.58%
AC50 [2]: 0.0651 µM [falling, full curve]

CC(C)(C)CC(C)(C)c1ccc(OCCOCC[N+](C)(C)Cc2ccccc2)cc1
cell number change: -82.9%
AC50 [1]: 16.4 µM [falling, partial curve]

Cc1ccc([C@H]2C(C#N)=C(N)Oc3cc(C)oc(=O)c32)o1
cell number change: -0.221%
AC50 [2]: 0.517 µM [rising, single point]

CN(C)c1cccc(C(=O)N(Cc2ccccc2)Cc2ccccc2)c1
cell number change: 7.02%
AC50 [2]: 6.51 µM [falling, partial curve]

O=S(=O)(N/N=C\C=C\c1ccccc1)c1ccc(Br)cc1
cell number change: -56%
AC50 [1]: 23.1 µM [falling, partial curve]
AC50 [2]: 23.1 µM [falling, partial curve]

CC(C)(C)OC(=O)N[C@@H](Cc1ccccc1)C(=O)N1CCC(C(=O)N[C@@H](CCC(N)=O)C(=O)O)CC1
cell number change: 56.9%
AC50 [1]: 29.1 µM [rising, single point]
AC50 [2]: 6.51 µM [falling, single point]

CCOc1ccc(S(=O)(=O)NCc2ccc3c(c2)OCO3)cc1
cell number change: 20.8%
AC50 [2]: 29.1 µM [rising, single point]

Cc1ccc(C(=O)NNC(=O)c2n[nH]c(=O)c3ccccc23)cc1C
cell number change: 5.97%
AC50 [2]: 13 µM [rising, partial curve]

Cn1c(=O)c2c(ncn2CC(COCc2ccc(Cl)cc2)OCc2ccc(Cl)cc2)n(C)c1=O (centres undefined)
cell number change: -24.2%
AC50 [2]: 5.17 µM [rising, single point]

COc1ccc(NC(=O)CCN2C(=O)c3ccc([N+](=O)[O-])cc3C2=O)c(OC)c1
cell number change: 5.8%
AC50 [2]: 32.6 µM [falling, single point]

CC1CCCC(C)N1C(=O)COC(=O)c1nn(C)c(=O)c2ccccc12 (centres undefined)
cell number change: -7.92%
AC50 [2]: 7.31 µM [falling, partial curve]

O=S(=O)(c1cc(Cl)c(Cl)cc1Cl)N1CCN2CCCC2C1 (centres undefined)
cell number change: 10.8%
AC50 [2]: 0.00461 µM [rising, full curve]

Cc1ccccc1NC(=O)CN1C(=O)CSc2ccc(S(=O)(=O)N3CCCC3)cc21
cell number change: 29.6%
AC50 [1]: 0.146 µM [rising, full curve, poor fit]

COC(=O)c1ccc(Oc2nc(N3CCCCC3)nc(N3CCOCC3)n2)cc1
cell number change: 107%
AC50 [1]: 18.4 µM [rising, partial curve]

CCn1ncc(Br)c1C(=O)Nc1ccc(C(C)C)cc1
cell number change: -37.4%
AC50 [1]: 20.6 µM [falling, single point]

CCC1(C)Cc2c(C#N)c(N)n(N)c(=S)c2CO1 (centres undefined)
cell number change: 29.5%

C=CCNc1nc(Cl)nc(Nc2ccc([N+](=O)[O-])cc2)n1
cell number change: -40.8%

COc1ccc(-c2nnc3ccc(SCC(=O)N4CCOCC4)nn23)cc1
AC50 [2]: 3.66 µM [rising, partial curve]
